Assay results: the supplement of paper PMC8728848
Some of the results follow.

Assays:
Assay in all cases: glycan array binding signal (z-score within array); higher = stronger binding
Settings in all cases: glycan notation: IUPAC condensed, linker removed
[1] = biological target: Gal(b1-4)GlcNAc(b1-3)Gal(b1-4)GlcNAc(b1-3)Gal(b1-4)GlcNAc
Method in brief: (§1)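 From the Consortium for Functional Glycomics database, 3228 arrays were curated, keeping only those whose protein sequence was available. Binding is given as a within-array Z-score averaged across arrays sharing a protein sequence and across linkers. Negative Z-scores can be read as non-binding.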

[2] = biological target: Gal(b1-4)GlcNAc(b1-3)Gal(b1-4)GlcNAc(b1-3)Gal(b1-4)GlcNAc(b1-2)Man(a1-3)[Gal(b1-4)GlcNAc(b1-3)Gal(b1-4)GlcNAc(b1-3)Gal(b1-4)GlcNAc(b1-2)Man(a1-6)]Man(b1-4)GlcNAc(b1-4)GlcNAc
Method in brief: as §1

[3] = biological target: Gal(b1-4)GlcNAc(b1-3)Gal(b1-4)GlcNAc(b1-3)Gal(b1-4)GlcNAc(b1-2)Man(a1-3)[Gal(b1-4)GlcNAc(b1-3)Gal(b1-4)GlcNAc(b1-3)Gal(b1-4)GlcNAc(b1-2)Man(a1-6)]Man(b1-4)GlcNAc(b1-4)[Fuc(a1-6)]GlcNAc
Method in brief: as §1

[4] = biological target: Gal(b1-4)GlcNAc(b1-3)Gal(b1-4)GlcNAc(b1-3)Gal(b1-4)GlcNAc(b1-2)[Gal(b1-4)GlcNAc(b1-3)Gal(b1-4)GlcNAc(b1-3)Gal(b1-4)GlcNAc(b1-6)]Man(a1-6)[Gal(b1-4)GlcNAc(b1-3)Gal(b1-4)GlcNAc(b1-3)Gal(b1-4)GlcNAc(b1-2)Man(a1-3)]Man(b1-4)GlcNAc(b1-4)[Fuc(a1-6)]GlcNAc
Method in brief: as §1

[5] = biological target: Gal(b1-4)GlcNAc(b1-3)Gal(b1-4)GlcNAc(b1-3)Gal(b1-4)GlcNAc(b1-3)Gal(b1-4)GlcNAc(b1-2)Man(a1-3)[Gal(b1-4)GlcNAc(b1-3)Gal(b1-4)GlcNAc(b1-3)Gal(b1-4)GlcNAc(b1-3)Gal(b1-4)GlcNAc(b1-2)Man(a1-6)]Man(b1-4)GlcNAc(b1-4)GlcNAc
Method in brief: as §1

[6] = biological target: Gal(b1-4)GlcNAc(b1-3)Gal(b1-4)GlcNAc(b1-3)Gal(b1-4)GlcNAc(b1-3)Gal(b1-4)GlcNAc(b1-2)Man(a1-3)[Gal(b1-4)GlcNAc(b1-3)Gal(b1-4)GlcNAc(b1-3)Gal(b1-4)GlcNAc(b1-3)Gal(b1-4)GlcNAc(b1-2)Man(a1-6)]Man(b1-4)GlcNAc(b1-4)[Fuc(a1-6)]GlcNAc
Method in brief: as §1

[7] = biological target: Gal(b1-4)GlcNAc(b1-3)Gal(b1-4)GlcNAc(b1-3)Gal(b1-4)GlcNAc(b1-3)Gal(b1-4)GlcNAc(b1-2)[Gal(b1-4)GlcNAc(b1-3)Gal(b1-4)GlcNAc(b1-3)Gal(b1-4)GlcNAc(b1-3)Gal(b1-4)GlcNAc(b1-6)]Man(a1-6)[Gal(b1-4)GlcNAc(b1-3)Gal(b1-4)GlcNAc(b1-3)Gal(b1-4)GlcNAc(b1-3)Gal(b1-4)GlcNAc(b1-2)Man(a1-3)]Man(b1-4)GlcNAc(b1-4)[Fuc(a1-6)]GlcNAc
Method in brief: as §1

[8] = biological target: Gal(b1-4)GlcNAc(b1-3)Gal(b1-4)GlcNAc(b1-3)Gal(b1-4)GlcNAc(b1-3)Gal(b1-4)GlcNAc(b1-3)Gal(b1-4)GlcNAc(b1-2)Man(a1-3)[Gal(b1-4)GlcNAc(b1-3)Gal(b1-4)GlcNAc(b1-3)Gal(b1-4)GlcNAc(b1-3)Gal(b1-4)GlcNAc(b1-3)Gal(b1-4)GlcNAc(b1-2)Man(a1-6)]Man(b1-4)GlcNAc(b1-4)GlcNAc
Method in brief: as §1

[9] = biological target: Gal(b1-4)GlcNAc(b1-3)Gal(b1-4)GlcNAc(b1-3)Gal(b1-4)GlcNAc(b1-3)Gal(b1-4)GlcNAc(b1-3)Gal(b1-4)GlcNAc(b1-2)Man(a1-3)[Gal(b1-4)GlcNAc(b1-3)Gal(b1-4)GlcNAc(b1-3)Gal(b1-4)GlcNAc(b1-3)Gal(b1-4)GlcNAc(b1-3)Gal(b1-4)GlcNAc(b1-2)Man(a1-6)]Man(b1-4)GlcNAc(b1-4)[Fuc(a1-6)]GlcNAc
Method in brief: as §1

[10] = biological target: Gal(b1-4)GlcNAc(b1-3)Gal(b1-4)GlcNAc(b1-3)Gal(b1-4)GlcNAc(b1-3)Gal(b1-4)GlcNAc(b1-3)Gal(b1-4)GlcNAc(b1-2)[Gal(b1-4)GlcNAc(b1-3)Gal(b1-4)GlcNAc(b1-3)Gal(b1-4)GlcNAc(b1-3)Gal(b1-4)GlcNAc(b1-3)Gal(b1-4)GlcNAc(b1-6)]Man(a1-6)[Gal(b1-4)GlcNAc(b1-3)Gal(b1-4)GlcNAc(b1-3)Gal(b1-4)GlcNAc(b1-3)Gal(b1-4)GlcNAc(b1-3)Gal(b1-4)GlcNAc(b1-2)Man(a1-3)]Man(b1-4)GlcNAc(b1-4)[Fuc(a1-6)]GlcNAc
Method in brief: as §1

[11] = biological target: Gal(b1-4)GlcNAc(b1-3)Gal(b1-4)GlcNAc(b1-3)Gal(b1-4)GlcNAc(b1-3)Gal(b1-4)GlcNAc(b1-3)Gal(b1-4)GlcNAc(b1-3)Gal(b1-4)GlcNAc(b1-2)Man(a1-3)[Gal(b1-4)GlcNAc(b1-3)Gal(b1-4)GlcNAc(b1-3)Gal(b1-4)GlcNAc(b1-3)Gal(b1-4)GlcNAc(b1-3)Gal(b1-4)GlcNAc(b1-3)Gal(b1-4)GlcNAc(b1-2)Man(a1-6)]Man(b1-4)GlcNAc(b1-4)GlcNAc
Method in brief: as §1

[12] = biological target: Gal(b1-4)GlcNAc(b1-3)Gal(b1-4)GlcNAc(b1-3)GalNAc
Method in brief: as §1

[13] = biological target: Gal(b1-4)GlcNAc(b1-3)Gal(b1-4)GlcNAc(b1-3)[Gal(b1-4)GlcNAc(b1-3)Gal(b1-4)GlcNAc(b1-6)]GalNAc
Method in brief: as §1

[14] = biological target: Gal(b1-4)GlcNAc(b1-3)Gal(b1-4)GlcNAc(b1-6)[Gal(b1-3)]GalNAc
Method in brief: as §1

[15] = biological target: Gal(b1-4)GlcNAc(b1-3)Gal(b1-4)[Fuc(a1-3)]GlcNAc(b1-3)Gal(b1-4)[Fuc(a1-3)]GlcNAc
Method in brief: as §1

[16] = biological target: Gal(b1-4)GlcNAc(b1-3)GalNAc
Method in brief: as §1

[17] = biological target: Gal(b1-4)GlcNAc(b1-3)[Fuc(a1-3)GlcNAc(b1-6)]Gal(b1-4)Glc
Method in brief: as §1

[18] = biological target: Gal(b1-4)GlcNAc(b1-3)[Gal(b1-4)GlcNAc(b1-6)]Gal(b1-4)GlcNAc
Method in brief: as §1

[19] = biological target: Gal(b1-4)GlcNAc(b1-3)[GlcNAc(b1-6)]Gal(b1-4)GlcNAc
Method in brief: as §1

B1: Epa2 (Candida glabrata) (protein)
chain: MGSSHHHHHHSSGLVPRGSHMASSKDPTSFPMGCSPQVLKTQPGLAVKLYSYGHPVPGCAYNTYQYPDFPRSGYKKERKLADITGVNGRIDIDLKPNDPCRVLSGNLPSNYNYQNTLTYTNFTMILYGYFQPKVTGYHTFNLEADDLLFMNLGAGNAFDCCRAESTLDNFGNYQSYSIWGTDKATADLTVFLVSGIYYPIRLFYVNRDNNAVLDFSFSTEFNKEIIHDFTSYFFSASDEEQCPGNI
glycan array binding signal (z-score) [1]: -0.341
glycan array binding signal (z-score) [2]: 1.89
glycan array binding signal (z-score) [3]: 0.023
glycan array binding signal (z-score) [4]: 1.32
glycan array binding signal (z-score) [5]: 0.526
glycan array binding signal (z-score) [6]: 0.594
glycan array binding signal (z-score) [7]: 0.16
glycan array binding signal (z-score) [8]: 0.797
glycan array binding signal (z-score) [9]: 0.756
glycan array binding signal (z-score) [10]: 0.852
glycan array binding signal (z-score) [11]: -0.314
glycan array binding signal (z-score) [12]: 0.672
glycan array binding signal (z-score) [13]: 0.645
glycan array binding signal (z-score) [14]: 0.373
glycan array binding signal (z-score) [15]: -0.231
glycan array binding signal (z-score) [16]: -0.071
glycan array binding signal (z-score) [17]: 0.111
glycan array binding signal (z-score) [18]: 0.092
glycan array binding signal (z-score) [19]: -1.09
